Data reported in US20240209334A1, “SMALL-MOLECULE-ACTIVATED GLYCAN MODIFYING ENZYMES AND USES THEREOF” (President and Fellows of Harvard College, priority 2022, published 2024).
For at least one compound, name, drawing or mass did not settle the structure.

Amino acid sequences for entries named in this document (tags omitted). A change or cut given only in a name is not applied to a line headed by its entry.
UniProt O60502: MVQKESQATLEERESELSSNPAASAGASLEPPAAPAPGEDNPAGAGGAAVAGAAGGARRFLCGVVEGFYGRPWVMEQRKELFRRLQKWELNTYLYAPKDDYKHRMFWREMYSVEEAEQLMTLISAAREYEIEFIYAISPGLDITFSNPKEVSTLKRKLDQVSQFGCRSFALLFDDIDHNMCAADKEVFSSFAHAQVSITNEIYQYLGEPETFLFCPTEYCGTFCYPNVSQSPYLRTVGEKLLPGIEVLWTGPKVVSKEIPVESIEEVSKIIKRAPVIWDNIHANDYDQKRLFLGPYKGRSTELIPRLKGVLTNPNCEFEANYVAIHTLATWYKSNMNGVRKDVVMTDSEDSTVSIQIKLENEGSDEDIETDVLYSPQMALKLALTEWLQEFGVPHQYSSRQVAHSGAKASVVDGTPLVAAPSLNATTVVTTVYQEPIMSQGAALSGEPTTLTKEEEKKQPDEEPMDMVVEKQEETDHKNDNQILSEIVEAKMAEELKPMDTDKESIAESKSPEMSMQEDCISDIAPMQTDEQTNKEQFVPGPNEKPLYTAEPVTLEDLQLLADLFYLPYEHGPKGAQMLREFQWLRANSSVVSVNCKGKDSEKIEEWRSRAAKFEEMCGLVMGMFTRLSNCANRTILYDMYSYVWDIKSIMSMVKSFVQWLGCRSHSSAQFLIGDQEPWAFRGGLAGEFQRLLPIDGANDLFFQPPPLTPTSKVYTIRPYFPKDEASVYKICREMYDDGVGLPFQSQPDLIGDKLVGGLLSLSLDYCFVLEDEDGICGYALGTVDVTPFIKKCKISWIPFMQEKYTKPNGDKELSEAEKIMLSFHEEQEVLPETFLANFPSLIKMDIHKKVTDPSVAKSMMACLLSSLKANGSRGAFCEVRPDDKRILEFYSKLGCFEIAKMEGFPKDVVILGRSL

Assays:
[1] = molecular target: T1, OGA-intein(C181) (Homo sapiens, UniProt O60502, A507S/DEL401-503/DEL516-540/E504G/E508G/E513S/I506G/INS181[…]/K510G/M514G/N543G/P512G/P542S); test: 4-HT-triggered OGA-intein(C181) activation, dose and time course, HEK293T cells co-expressing Nup62, immunoblot; assay type: cell-based
T1 construct: myc-OGA(1-180)-C-intein-OGA(182, GS-544); expressed in transfected cells; host or cells: HEK293T
T1 sequence (O60502 with tags, fused parts or gaps INS181[…]/DEL401-503/E504G/I506G/A507S/E508G/K510G/P512G/E513S/M514G/DEL516-540/P542S/N543G): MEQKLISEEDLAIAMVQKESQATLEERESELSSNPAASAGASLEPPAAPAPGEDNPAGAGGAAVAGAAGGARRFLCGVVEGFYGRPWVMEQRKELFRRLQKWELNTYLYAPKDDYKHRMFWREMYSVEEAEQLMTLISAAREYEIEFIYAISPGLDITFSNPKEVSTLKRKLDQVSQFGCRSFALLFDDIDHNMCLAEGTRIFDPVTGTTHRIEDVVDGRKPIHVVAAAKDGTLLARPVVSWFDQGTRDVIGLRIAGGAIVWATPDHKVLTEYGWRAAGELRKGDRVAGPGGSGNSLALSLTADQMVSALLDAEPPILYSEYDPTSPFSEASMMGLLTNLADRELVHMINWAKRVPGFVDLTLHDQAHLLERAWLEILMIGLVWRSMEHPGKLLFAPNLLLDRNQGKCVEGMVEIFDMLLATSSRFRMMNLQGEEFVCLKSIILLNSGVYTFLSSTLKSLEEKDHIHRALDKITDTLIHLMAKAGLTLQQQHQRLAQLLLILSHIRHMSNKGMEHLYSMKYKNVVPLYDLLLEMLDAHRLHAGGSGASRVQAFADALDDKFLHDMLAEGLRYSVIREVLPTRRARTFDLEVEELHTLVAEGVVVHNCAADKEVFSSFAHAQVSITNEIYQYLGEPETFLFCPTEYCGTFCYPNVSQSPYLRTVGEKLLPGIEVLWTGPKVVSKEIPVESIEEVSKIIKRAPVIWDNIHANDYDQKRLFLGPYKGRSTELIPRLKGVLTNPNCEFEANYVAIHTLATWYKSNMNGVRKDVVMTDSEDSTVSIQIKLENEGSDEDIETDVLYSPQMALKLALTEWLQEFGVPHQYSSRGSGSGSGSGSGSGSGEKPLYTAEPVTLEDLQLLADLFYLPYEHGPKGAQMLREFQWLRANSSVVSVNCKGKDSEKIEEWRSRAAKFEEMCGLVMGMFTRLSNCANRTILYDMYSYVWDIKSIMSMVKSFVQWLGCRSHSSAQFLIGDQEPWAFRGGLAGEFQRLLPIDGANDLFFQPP

[2] = tested on: endogenous OGT mRNA; test: Quantitative RT-PCR of endogenous OGT mRNA during OGA-intein activation; assay type: cell-based; conditions: HEK293T expressing OGA-intein(C181), 4-HT
[3] = tested on: global O-GlcNAc level in MCF-7 cells; test: Immunoblot of global O-GlcNAc level and splicing in MCF-7 stable cell lines; assay type: cell-based, human; conditions: MCF-7 cells stably expressing OGA-intein(C181), 1 μM 4-HT
From the text: In addition to serving as an activator for intein splicing, 4-HT is also known as the active metabolite of tamoxifen, an FDA-approved drug for treating breast cancer patients. Breast cancer cells also have elevated OGT expression (39) and decreased levels of OGA (40, 41), resulting in elevated O-GlcNAcylation in the proteome. OGT is usually required for tumor growth and metastasis (39), and low OGA expression is correlated with poor survival in breast cancer patients (FIG. 13). The ER positive breast cancer-derived MCF-7 cell line is sensitive to tamoxifen and 4-HT, resulting in suppression of cell proliferation, yet drug resistance occurs after long-term treatment (42). Previous studies also show evidence that upregulation of O-GlcNAcylation protects MCF-7 cells from tamoxifen-induced cell death (43). To determine if reduction of O-GlcNAc sensitized MCF-7 cells to 4-HT treatment, it was assessed whether 4-HT induced inhibition of breast cancer cell proliferation and OGA-intein activation worked synergistically to accelerate cell death (FIG. 5A). […] Next, these two cell lines were treated with 4-HT at increasing concentrations, and cell viability was measured after 48 hours. […] Given that 4-HT promoted MCF-7 cell death through apoptosis (43), the apoptosis of these cells under 4-HT treatment was further analyzed through flow cytometry analyses following Annexin V and DAPI staining. […]

[4] = tested on: OGA; test: In vitro OGA activity assay on lysates of 4-HT-treated cells; assay type: biochemical
[5] = tested on: endogenous OGA mRNA; test: Quantitative RT-PCR of endogenous OGA mRNA during OGA-intein activation; assay type: cell-based; conditions: HEK293T expressing OGA-intein(C181), 4-HT time course; overall change subtle
[6] = 1 μM 4-HT, HEK293T co-expressing Nup62
[7] = HEK293T, tested 1 nM to 5 μM, 15 hours

**Q.** How did the “O-GlcNAc on Nup62 and spliced OGA-intein fusion as a function of 4-HT concentration” value ([1]; 1 nM to 5 μM 4-HT, 15 hours) turn out when `CC/C(=C(\c1ccc(O)cc1)c1ccc(OCCN(C)C)cc1)c1ccccc1` [4-HT, 4-hydroxytamoxifen] was run?
**A.** Its value is “dose-dependent reduction of O-GlcNAc on Nup62”.

**Q.** What about the “endogenous OGA proteins” value ([1]; 1 μM 4-HT for 3 hours) of the same compound?
**A.** Its value is “minor decrease”.

**Q.** And the “endogenous OGT protein levels” value ([1]; 1 μM 4-HT for 3 hours)?
**A.** Its value is “obvious compensatory increase”.

**Q.** What about the “incubation time at which significant deglycosylation on Nup62 occurred” value [1, 6] of the same compound?
**A.** Its value is 3 h.

**Q.** And the “incubation time from which active spliced product accumulates” value [1, 6]?
**A.** Its value is 1 h.

**Q.** What about the “4-HT concentration at which considerable reduction of O-GlcNAc on Nup62 occurs” value [1, 7] of the same compound?
**A.** Its value is 100 nM.

**Q.** And the “4-HT concentration at which the spliced product was detectable” value [1, 7]?
**A.** Its value is 50 nM.

**Q.** And the “time the activation takes to achieve substantial O-GlcNAc removal” value ([1]; after adding 4-HT)?
**A.** The value was about 3 h.

**Q.** What about the “splicing of C181 after extended incubation” value ([1]; different concentrations of 4-HT, 24 hours) of the same compound?
**A.** The value was “reaching a plateau”.

**Q.** What about the “time after activation at which OGT mRNA levels increased” value [2] of the same compound?
**A.** The value was 1 h.

**Q.** And the “deglycosylation over incubation time” value [3]?
**A.** The value was “time-dependent deglycosylation effects”.

**Q.** What about the “OGA activity after long activation” value ([4]; activation for 24 hours) of the same compound?
**A.** Its value is “mildly decreased”.

**Q.** And the “hydrolase activity over 4-HT incubation time” value ([4]; cell samples treated with 4-HT over a series of time points)?
**A.** The value was “elevated as a function of 4-HT incubation time”.

**Q.** And the “OGA mRNA level during activation” value [5]?
**A.** The value was “decreased in a time-dependent manner”.
